# From PubChem BioAssay AID445 (National Center for Advancing Translational Sciences (NCATS), 2006)
# Where “and” joins values, the source holds several entries; their conditions need not be identical. Equal values may be shown once. This is one part of the list. Further columns of the screen follow, without active or inactive calls. Compounds called inactive in the main read-out are mostly missing here. Words in brackets tell the shape of the fitted curve; partial curves, single points and poor fits give uncertain potencies.
# Test: IkB Signaling
# Conditions: ABC-DLBCL IkBa-CBG/CBR dual luciferase ratio (green luciferase fused to IkBa over red control in OCI-Ly3 lymphoma cells), 4 h
# Outline: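 Curves were fitted separately to fusion (green), unfused (red) and ratio luminescence, then classed by r2, magnitude and activity. Cells: OCI-Ly3, 4 h compound plus doxycycline at 37C; 10 uM MG-132 defined full response.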
# [1] = measured here: control luc red channel unless noted
# [2] = measured here: IkB-luc green channel
# [3] = measured here: control luc red channel
compound,measurement,setting,value
O=C(NCCCN1CCN(c2ccc(F)cc2)CC1)c1cnn(-c2ccc(F)cc2)c1-n1cccc1,AC50,[1],"12.6 µM [falling, partial curve]"
O=C(CN1C(=O)COc2ccc(S(=O)(=O)N3CCOCC3)cc21)N1CCN(c2cccc(Cl)c2)CC1,AC50,[1],"31.6 µM [falling, single point]"
CC(=O)c1cccc(Nc2nc(-c3cccc(C)c3)nc3ccccc23)c1,AC50,[1],"12.6 µM [falling, partial curve]"
Cc1nn(-c2ccc(N3CCCCC3)nn2)c(C)c1CCC(=O)NCc1ccc(OC(C)C)cc1,AC50,[1],"12.6 µM [falling, partial curve]"
CC(C)[C@H](CO)Nc1nc(Nc2cccc(Cl)c2)c2ncn(C(C)C)c2n1,AC50,[2],"20 µM [falling, partial curve, poor fit]"
same,AC50,[3],"7.94 µM [falling, full curve] and 501 nM [falling, full curve]"
CCOc1ncccc1C(=O)OCC(=O)c1cc(C)n(Cc2ccco2)c1C,AC50,[1],"25.1 µM [falling, partial curve]"
CC(C)=CCC/C(C)=C/COc1c2ccoc2cc2oc(=O)ccc12,AC50,[1],"0.251 µM [rising, single point]"
COc1cccc(C(=O)NCC(c2ccc(N(C)C)cc2)N2CCc3ccccc32)c1 (configuration not stated),AC50,[2],"39.8 µM [rising, single point]"
same,AC50,[3],"10 µM [falling, partial curve]"
O=C(CSc1nnc(COc2ccccc2)n1Cc1ccco1)c1ccc(F)cc1,AC50,[1],"25.1 µM [falling, partial curve]"
CCSc1oc(-c2ccco2)nc1S(=O)(=O)c1ccc(Br)cc1,AC50,[1],"15.8 µM [falling, partial curve]"
Cc1ccc(NC(=O)Cn2c(=O)c3ccccc3n3nncc23)cc1,AC50,[1],"15.8 µM [falling, partial curve]"
COc1ccccc1-c1cc2nc(C)c(CCC(=O)O)c(C)n2n1,AC50,[1],"0.1 µM [falling, full curve]"
Cc1ccc(-c2nn(-c3ccc(F)cc3)c3c2cnc2cc(F)c(F)cc23)cc1,AC50,[1],"20 µM [rising, partial curve]"
CCCc1cc(=O)[nH]c(SCC(=O)N2CCN(c3ccccc3OC)CC2)n1,AC50,[1],"10 µM [falling, partial curve]"
COc1cc(NC(=O)c2cc3c(s2)-c2ccccc2OC3)cc(OC)c1OC,AC50,[1],"20 µM [falling, partial curve]"
Cc1cccc(N2CCN(C(=O)c3c(C)oc4ncnc(N5CCOCC5)c34)CC2)c1C,AC50,[1],"39.8 µM [falling, single point]"
Cc1nn(C(=O)COc2ccccc2Br)c(C)c1Sc1ccccc1,AC50,[1],"12.6 µM [falling, partial curve]"
COc1ccc(CCN2C(=O)N(c3ccc(C)cc3)C(=O)C2CC(=O)Nc2ccc(F)cc2)cc1 (configuration not stated),AC50,[1],"12.6 µM [falling, partial curve]"
COCc1cc(=O)n2[nH]c(-c3cccc(Br)c3)cc2n1,AC50,[1],"3.16 µM [falling, full curve]"
COc1ccc(-c2noc(CCCC(=O)O)n2)cc1,AC50,[1],"0.501 µM [falling, full curve]"
COc1ccccc1OCc1ccc(C(=O)N2CCN3CCCC3C2)cc1 (configuration not stated),AC50,[1],"39.8 µM [falling, single point]"
CCn1c(SCC(=O)N2c3ccccc3Sc3ccccc32)nnc1-c1ccco1,AC50,[1],"15.8 µM [falling, partial curve]"
CCn1cnc2cc(NCc3cccc(OC)c3O)ccc21,AC50,[1],"31.6 µM [rising, partial curve] [measured here: IkB-luc green channel]"
Cc1cccc(NC(=O)C(=O)NCCc2sc(-c3ccccc3)nc2C)c1C,AC50,[1],"3.16 µM [rising, full curve, poor fit]"
COc1ccc(-c2cn3c(n2)sc2cc(C(=O)NC4CCCCCC4)ccc23)cc1,AC50,[1],"20 µM [falling, single point]"
CC(CNC(=O)c1cc(-c2ccccc2)n[nH]1)c1ccccc1 (configuration not stated),AC50,[1],"31.6 µM [falling, partial curve]"
O=C(c1ccc(F)cc1)N1CCC(c2nc(-c3ccc(S(=O)(=O)N4CCCC4)cc3)no2)CC1,AC50,[1],"7.94 µM [falling, partial curve]"
COc1ccccc1N(CC(=O)Nc1ccc2c(c1)OCO2)S(=O)(=O)c1ccc(C)cc1,AC50,[1],"15.8 µM [falling, partial curve]"
O=C(Cn1cnc2onc(-c3ccc(F)cc3)c2c1=O)Nc1ccc(F)c(Cl)c1,AC50,[1],"31.6 µM [falling, single point]"
O=C(CN1c2ccccc2S(=O)(=O)c2ccccc21)Nc1ccccc1Cl,AC50,[1],"12.6 µM [falling, partial curve]"

# Part of the list above in another layout:
compound | measurement | setting | value
CC(C)=CCC/C(C)=C/COc1c2ccoc2cc2oc(=O)ccc12 | AC50 | [1] | 0.251 µM [rising, single point]
COc1cccc(C(=O)NCC(c2ccc(N(C)C)cc2)N2CCc3ccccc32)c1 (configuration not stated) | AC50 | [2] | 39.8 µM [rising, single point]
